Test results taken from patent US11427531B2, “Modulators of potassium ion and TRPV1 channels and uses thereof” (Ramot at Tel-Aviv University Ltd., priority 2017, dated 2022).
Some entries share one result that the patent states for a list of compounds.

Target: T1, recombinant Kv7.2/3 channels (Homo sapiens, UniProt O43525+O43526)
T1 construct: expressed in transfected cells; host or cells: CHO cells
Experiment: Whole-cell patch clamp of recombinant Kv7.2/3 currents in transfected CHO cells
Assay type: cell-based
Details: 5 μM compound
Method: Chinese hamster ovary CHO cells were grown in Dulbecco's modified Eagle's medium supplemented with 2 mM glutamine, 10% fetal calf serum, and antibiotics. In brief, 40,000 cells seeded on poly-D-lysine-coated glass coverslips (13 mm in diameter) in a 24-multiwell plate were transfected with pIRES-CD8 (0.3 μg) as a marker for transfection with 0.5 μg Kv7.2 and 0.5 μg Kv7.3. Transfection was performed using 3.6 μl of X-tremeGENE 9 (Roche) according to the manufacturer's protocol. For electrophysiology, transfected cells were visualized approximately 40 h after transfection, using the anti-CD8 antibody coated beads method.
For Kv7.2 potassium current recordings, the patch pipettes were pulled from borosilicate glass (Warner Instrument Corp) with a resistance of 3-7 MΩ, and were filled with (in mM): 130 KCl, 5 Mg ATP, 5 EGTA, 10 HEPES, pH 7.3 (adjusted with KOH), and sucrose was added to adjust osmolarity to 290 mOsmol. […]
The normalized conductance was plotted as a function of the test voltages, for cells in the absence and presence of the drug. Chord conductance (G) was calculated by using the following equation: G=I/(V−Vrev), where I corresponds to the current amplitude measured at the end of the pulse, and Vrev is the calculated reversal potential assumed to be −90 mV in CHO cells. […]

O=C(Cc1cc(Nc2c(Cl)cc(Cl)cc2Cl)ccc1F)NCCO [NH43, reference compound]
left-shift of voltage-dependence of recombinant Kv7.2/3 currents: more than −10 mV

CC(C)(O)CNC(=O)Cc1cc(Nc2c(Cl)cc(Cl)cc2Cl)ccc1F [NH66]
left-shift of voltage-dependence of recombinant Kv7.2/3 currents: more than −10 mV
